Among the data in patent US20210238225A1 (DANA-FARBER CANCER INSTITUTE, INC., priority 2018, published 2021) are step yield values, retold here.

A short description of the data set: general procedure: Fmoc solid-phase peptide synthesis; Wang resin (1.45 meq/g); Rink Amide resin for some peptides; HATU/DIPEA. Conditions: late stage modification step.
“(S)-2-((S)-2-((S)-1-(N-(tert-Butoxycarbonyl)-N-methyl-L-phenylalanyl)piperidine-2-carboxamido)-3-(1H-indol-3-yl)propanamido)-5-ureidopentanoic acid” had a step yield of 80%.

Turning to “(S)-5-((S)-2-(((S)-1-(((S)-1-Amino-1-oxo-5-ureidopentan-2-yl)amino)-3-(1H-indol-3-yl)-1-oxopropan-2-yl)carbamoyl)piperidin-1-yl)-4-(2-fluoroacetamido)-5-oxopentanoic acid”, the step yield is listed as 75%.

The substance “(S)-5-((S)-2-(((S)-1-(((S)-1-Amino-1-oxo-5-ureidopentan-2-yl)amino)-3-(naphthalen-2-yl)-1-oxopropan-2-yl)carbamoyl)piperidin-1-yl)-4-(2,5-dioxo-2,5-dihydro-1H-pyrrol-1-yl)-5-oxopentanoic acid” gave a step yield of 26%.

In turn, “(S)-5-((S)-2-(((S)-1-(((S)-1-Amino-1-oxo-5-ureidopentan-2-yl)amino)-3-(naphthalen-2-yl)-1-oxopropan-2-yl)carbamoyl)piperidin-1-yl)-5-oxo-4(vinylsulfonamido)pentanoic acid” yielded a step yield of 20%.

As to “(S)—N—((S)-1-(((S)-1-(((S)-1-Amino-6-(6-((4S,5R)-5-methyl-2-oxoimidazolidin-4-yl)hexanamido)-1-oxohexan-2-yl)amino)-1-oxo-5-ureidopentan-2-yl)amino)-3-(1H-indol-3-yl)-1-oxopropan-2-yl)-1-(N-(2-chloroacetyl)-N-methyl-L-phenylalanyl)-piperidine-2-carboxamide”, the step yield is given as 70%.

Consider “(S)—N—((S)-3-(1H-indol-3-yl)-1-(((S)-1-((4-methylbenzyl)amino)-1-oxo-5-ureidopentan-2-yl)amino)-1-oxopropan-2-yl)-1-((cyanomethyl)-L-phenylalanyl)piperidine-2-carboxamide”, for which the step yield is 58%.

“(S)—N—((S)-3-(1H-indol-3-yl)-1-(((S)-1-((4-methylbenzyl)amino)-1-oxo-5-ureidopentan-2-yl)amino)-1-oxopropan-2-yl)-1-(N-(2-chloroacetyl)-N-methyl-L-phenylalanyl)piperidine-2-carboxamide” came in with a step yield of 85%.

The substance “(S)—N—((S)-3-(1H-indol-3-yl)-1-(((S)-1-((4-methylbenzyl)amino)-1-oxo-5-ureidopentan-2-yl)amino)-1-oxopropan-2-yl)-1-(methyl-L-phenylalanyl)piperidine-2-carboxamide” registered a step yield of 80%.

Take “Ethyl (S)-2-((S)-2-((S)-1-(N-(2-chloroacetyl)-N-methyl-L-phenylalanyl)piperidine-2-carboxamido)-3-(1H-indol-3-yl)propanamido)-5-ureidopentanoate”: the step yield turned out to be 40%.

The substance “Ethyl (S)-2-((S)-3-(1H-indol-3-yl)-2-((S)-1-(methyl-L-phenylalanyl)piperidine-2-carboxamido)propanamido)-5-ureidopentanoate” yielded a step yield of 52%.

Turning to “Methyl (4S)-5-((S)-2-(((S)-1-(((S)-1-amino-1-oxo-5-ureidopentan-2-yl)amino)-3-(1H-indol-3-yl)-1-oxopropan-2-yl)carbamoyl)piperidin-1-yl)-4-(oxirane-2-carboxamido)-5-oxopentanoate”, the step yield is given as 29%.

In turn, “Methyl (S)-5-((S)-2-(((S)-1-(((S)-1-amino-1-oxo-5-ureidopentan-2-yl)amino)-3-(1H-indol-3-yl)-1-oxopropan-2-yl)carbamoyl)piperidin-1-yl)-4-(2-chloroacetamido)-5-oxopentanoate” had a step yield of 54%.

As for “Methyl (S)-5-((S)-2-(((S)-1-(((S)-1-amino-1-oxo-5-ureidopentan-2-yl)amino)-3-(1H-indol-3-yl)-1-oxopropan-2-yl)carbamoyl)piperidin-1-yl)-4-(2-fluoroacetamido)-5-oxopentanoate”, the step yield is given as 65%.

The substance “tert-Butyl ((S)-1-((S)-2-(((S)-3-(1H-indol-3-yl)-1-(((S)-1-((4-methylbenzyl)amino)-1-oxo-5-ureidopentan-2-yl)amino)-1-oxopropan-2-yl)carbamoyl)piperidin-1-yl)-1-oxo-3-phenylpropan-2-yl)(methyl)carbamate” came in with a step yield of 40%.
